# Source: the supplement of paper PMC10849652
# By UniProt entry, the sequences of proteins in these tests, tags left out. Where a name states a change or a piece, a line headed by the entry shows the natural chain unless it says otherwise.
# UniProt P30305: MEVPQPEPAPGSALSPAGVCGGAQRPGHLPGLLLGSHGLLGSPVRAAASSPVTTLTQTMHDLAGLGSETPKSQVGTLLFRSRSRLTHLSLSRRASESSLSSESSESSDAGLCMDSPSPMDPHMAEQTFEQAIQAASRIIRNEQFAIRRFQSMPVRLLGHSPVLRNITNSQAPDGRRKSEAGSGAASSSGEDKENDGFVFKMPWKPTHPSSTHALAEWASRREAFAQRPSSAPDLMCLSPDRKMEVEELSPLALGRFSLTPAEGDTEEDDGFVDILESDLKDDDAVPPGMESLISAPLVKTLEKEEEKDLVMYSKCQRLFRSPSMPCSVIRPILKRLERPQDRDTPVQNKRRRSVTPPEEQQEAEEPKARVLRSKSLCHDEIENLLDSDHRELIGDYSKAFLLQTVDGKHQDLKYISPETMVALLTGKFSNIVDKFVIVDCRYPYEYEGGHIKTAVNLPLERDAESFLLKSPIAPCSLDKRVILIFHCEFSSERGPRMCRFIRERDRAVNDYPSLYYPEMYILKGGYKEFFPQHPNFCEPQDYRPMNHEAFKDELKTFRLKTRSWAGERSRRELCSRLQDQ
# UniProt A8MTT3: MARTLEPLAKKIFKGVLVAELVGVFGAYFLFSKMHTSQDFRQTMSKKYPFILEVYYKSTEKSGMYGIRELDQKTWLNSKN
# UniProt P49918: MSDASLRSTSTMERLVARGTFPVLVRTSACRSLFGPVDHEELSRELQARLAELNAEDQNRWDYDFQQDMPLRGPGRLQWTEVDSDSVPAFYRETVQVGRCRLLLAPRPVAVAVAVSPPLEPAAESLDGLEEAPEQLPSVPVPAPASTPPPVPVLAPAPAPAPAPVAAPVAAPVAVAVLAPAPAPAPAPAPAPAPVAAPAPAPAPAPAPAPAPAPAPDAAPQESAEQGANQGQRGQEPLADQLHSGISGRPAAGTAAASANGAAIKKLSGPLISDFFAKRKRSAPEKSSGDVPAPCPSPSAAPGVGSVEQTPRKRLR
# UniProt O43822: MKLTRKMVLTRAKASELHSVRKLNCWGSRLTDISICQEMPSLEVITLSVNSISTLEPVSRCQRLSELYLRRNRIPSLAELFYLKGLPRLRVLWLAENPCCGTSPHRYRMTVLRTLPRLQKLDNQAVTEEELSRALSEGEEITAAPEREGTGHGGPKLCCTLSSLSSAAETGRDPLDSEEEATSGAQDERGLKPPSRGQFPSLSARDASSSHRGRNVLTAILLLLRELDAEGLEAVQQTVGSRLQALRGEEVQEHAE
# UniProt Q03701: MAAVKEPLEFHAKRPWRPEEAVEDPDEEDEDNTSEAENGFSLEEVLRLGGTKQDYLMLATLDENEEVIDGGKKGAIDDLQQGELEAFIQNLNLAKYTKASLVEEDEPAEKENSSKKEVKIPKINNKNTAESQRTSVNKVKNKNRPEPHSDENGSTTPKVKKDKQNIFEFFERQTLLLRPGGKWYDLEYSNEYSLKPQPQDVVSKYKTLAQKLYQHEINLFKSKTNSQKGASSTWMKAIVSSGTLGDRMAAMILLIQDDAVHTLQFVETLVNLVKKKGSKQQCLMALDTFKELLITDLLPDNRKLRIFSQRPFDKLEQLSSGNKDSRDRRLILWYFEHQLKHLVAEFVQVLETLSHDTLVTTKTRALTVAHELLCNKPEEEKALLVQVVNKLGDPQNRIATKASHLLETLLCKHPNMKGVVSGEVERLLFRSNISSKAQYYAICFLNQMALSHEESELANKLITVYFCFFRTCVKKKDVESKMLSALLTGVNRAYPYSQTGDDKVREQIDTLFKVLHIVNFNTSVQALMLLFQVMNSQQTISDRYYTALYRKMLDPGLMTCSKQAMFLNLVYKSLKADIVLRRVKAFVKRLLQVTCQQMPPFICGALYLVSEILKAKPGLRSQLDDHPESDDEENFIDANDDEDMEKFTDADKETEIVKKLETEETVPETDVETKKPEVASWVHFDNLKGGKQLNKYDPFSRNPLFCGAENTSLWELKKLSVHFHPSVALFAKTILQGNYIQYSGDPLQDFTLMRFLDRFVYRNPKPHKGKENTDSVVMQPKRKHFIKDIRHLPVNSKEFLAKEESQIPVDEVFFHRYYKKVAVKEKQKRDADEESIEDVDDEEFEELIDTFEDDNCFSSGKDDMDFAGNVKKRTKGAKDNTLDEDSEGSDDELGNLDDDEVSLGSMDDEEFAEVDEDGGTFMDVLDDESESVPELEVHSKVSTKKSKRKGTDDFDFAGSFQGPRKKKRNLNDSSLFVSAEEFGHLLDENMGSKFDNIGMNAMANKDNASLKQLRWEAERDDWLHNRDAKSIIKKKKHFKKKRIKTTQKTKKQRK
# UniProt P23528, whole entry, looked up: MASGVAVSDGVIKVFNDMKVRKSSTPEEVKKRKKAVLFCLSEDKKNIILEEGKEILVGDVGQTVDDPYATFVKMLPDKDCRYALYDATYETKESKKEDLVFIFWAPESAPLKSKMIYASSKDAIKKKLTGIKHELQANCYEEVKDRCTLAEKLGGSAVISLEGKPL
# UniProt Q99618: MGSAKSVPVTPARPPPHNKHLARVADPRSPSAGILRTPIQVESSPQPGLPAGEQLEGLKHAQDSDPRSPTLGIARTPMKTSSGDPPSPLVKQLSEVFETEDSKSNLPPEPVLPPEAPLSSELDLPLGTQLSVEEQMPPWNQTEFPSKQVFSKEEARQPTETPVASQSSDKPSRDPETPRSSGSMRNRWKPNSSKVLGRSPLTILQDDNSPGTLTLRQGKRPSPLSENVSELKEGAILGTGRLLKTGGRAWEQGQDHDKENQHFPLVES
# UniProt Q86X02: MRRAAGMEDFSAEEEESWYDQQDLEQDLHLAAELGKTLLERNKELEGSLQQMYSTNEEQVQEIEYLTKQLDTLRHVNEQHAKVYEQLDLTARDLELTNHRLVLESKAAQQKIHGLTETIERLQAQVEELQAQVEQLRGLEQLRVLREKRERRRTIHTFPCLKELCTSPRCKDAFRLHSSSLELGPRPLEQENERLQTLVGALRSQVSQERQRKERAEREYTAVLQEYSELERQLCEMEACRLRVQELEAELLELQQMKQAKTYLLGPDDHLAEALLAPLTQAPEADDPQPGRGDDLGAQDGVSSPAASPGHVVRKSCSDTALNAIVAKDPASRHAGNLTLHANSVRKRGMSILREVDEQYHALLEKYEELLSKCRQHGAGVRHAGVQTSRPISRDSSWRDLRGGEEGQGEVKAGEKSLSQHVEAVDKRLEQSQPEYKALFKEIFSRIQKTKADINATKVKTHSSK
# UniProt O95674: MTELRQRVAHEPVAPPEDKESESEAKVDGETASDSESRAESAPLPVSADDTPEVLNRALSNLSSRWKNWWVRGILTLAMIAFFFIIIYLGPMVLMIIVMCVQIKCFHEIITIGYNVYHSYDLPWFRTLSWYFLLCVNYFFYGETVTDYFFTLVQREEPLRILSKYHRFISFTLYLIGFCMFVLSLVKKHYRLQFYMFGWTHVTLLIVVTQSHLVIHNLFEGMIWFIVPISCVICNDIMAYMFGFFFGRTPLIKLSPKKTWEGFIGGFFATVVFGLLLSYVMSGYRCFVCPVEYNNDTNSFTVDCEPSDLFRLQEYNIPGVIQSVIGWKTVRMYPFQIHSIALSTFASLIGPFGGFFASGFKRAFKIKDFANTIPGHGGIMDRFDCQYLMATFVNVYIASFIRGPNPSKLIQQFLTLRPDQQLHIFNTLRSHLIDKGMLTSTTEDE
# UniProt Q9NRR3: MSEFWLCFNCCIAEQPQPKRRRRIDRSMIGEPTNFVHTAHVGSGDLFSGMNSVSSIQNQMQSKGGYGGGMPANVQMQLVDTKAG
# UniProt Q5SW79: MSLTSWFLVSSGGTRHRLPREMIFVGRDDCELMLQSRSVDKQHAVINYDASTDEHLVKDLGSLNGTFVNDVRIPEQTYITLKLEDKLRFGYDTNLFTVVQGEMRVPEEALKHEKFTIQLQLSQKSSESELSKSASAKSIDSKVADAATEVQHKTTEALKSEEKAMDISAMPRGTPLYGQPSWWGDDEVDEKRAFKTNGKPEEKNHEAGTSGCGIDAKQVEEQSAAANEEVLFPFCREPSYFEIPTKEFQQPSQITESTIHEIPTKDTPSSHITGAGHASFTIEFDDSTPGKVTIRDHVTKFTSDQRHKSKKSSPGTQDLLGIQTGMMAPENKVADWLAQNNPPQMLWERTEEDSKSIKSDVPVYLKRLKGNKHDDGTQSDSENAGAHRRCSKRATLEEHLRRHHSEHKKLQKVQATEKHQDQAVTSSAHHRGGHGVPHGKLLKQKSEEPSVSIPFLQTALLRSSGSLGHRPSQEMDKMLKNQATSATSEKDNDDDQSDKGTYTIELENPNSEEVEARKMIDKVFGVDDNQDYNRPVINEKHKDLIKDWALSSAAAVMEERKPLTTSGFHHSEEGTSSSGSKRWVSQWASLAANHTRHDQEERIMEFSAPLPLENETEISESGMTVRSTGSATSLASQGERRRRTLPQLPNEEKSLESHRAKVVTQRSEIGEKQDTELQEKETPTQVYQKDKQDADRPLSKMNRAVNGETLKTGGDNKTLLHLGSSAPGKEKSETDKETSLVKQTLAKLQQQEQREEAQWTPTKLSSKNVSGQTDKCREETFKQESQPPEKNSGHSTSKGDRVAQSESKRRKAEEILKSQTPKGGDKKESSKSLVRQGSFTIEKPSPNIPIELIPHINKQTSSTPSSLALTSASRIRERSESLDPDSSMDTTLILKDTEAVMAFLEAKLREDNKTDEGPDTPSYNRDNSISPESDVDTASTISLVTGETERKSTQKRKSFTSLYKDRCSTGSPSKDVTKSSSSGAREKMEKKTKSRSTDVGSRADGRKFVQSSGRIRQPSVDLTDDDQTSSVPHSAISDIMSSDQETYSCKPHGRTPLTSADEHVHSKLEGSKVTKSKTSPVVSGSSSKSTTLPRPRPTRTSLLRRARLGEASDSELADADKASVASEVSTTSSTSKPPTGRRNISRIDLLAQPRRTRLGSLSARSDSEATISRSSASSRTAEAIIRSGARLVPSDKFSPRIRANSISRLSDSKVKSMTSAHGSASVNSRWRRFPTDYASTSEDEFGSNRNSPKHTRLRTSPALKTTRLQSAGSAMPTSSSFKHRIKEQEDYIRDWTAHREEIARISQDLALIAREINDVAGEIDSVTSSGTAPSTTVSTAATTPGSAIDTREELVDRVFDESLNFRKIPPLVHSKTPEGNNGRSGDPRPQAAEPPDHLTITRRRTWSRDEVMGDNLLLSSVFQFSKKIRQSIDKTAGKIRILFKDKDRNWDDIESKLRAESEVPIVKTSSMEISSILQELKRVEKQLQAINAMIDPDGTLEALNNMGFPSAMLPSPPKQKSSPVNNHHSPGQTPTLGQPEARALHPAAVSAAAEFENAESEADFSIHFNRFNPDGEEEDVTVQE
# UniProt Q8NHZ8, whole entry, looked up: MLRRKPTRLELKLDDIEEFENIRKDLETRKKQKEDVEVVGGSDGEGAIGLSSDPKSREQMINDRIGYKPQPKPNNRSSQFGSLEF
# UniProt P48960: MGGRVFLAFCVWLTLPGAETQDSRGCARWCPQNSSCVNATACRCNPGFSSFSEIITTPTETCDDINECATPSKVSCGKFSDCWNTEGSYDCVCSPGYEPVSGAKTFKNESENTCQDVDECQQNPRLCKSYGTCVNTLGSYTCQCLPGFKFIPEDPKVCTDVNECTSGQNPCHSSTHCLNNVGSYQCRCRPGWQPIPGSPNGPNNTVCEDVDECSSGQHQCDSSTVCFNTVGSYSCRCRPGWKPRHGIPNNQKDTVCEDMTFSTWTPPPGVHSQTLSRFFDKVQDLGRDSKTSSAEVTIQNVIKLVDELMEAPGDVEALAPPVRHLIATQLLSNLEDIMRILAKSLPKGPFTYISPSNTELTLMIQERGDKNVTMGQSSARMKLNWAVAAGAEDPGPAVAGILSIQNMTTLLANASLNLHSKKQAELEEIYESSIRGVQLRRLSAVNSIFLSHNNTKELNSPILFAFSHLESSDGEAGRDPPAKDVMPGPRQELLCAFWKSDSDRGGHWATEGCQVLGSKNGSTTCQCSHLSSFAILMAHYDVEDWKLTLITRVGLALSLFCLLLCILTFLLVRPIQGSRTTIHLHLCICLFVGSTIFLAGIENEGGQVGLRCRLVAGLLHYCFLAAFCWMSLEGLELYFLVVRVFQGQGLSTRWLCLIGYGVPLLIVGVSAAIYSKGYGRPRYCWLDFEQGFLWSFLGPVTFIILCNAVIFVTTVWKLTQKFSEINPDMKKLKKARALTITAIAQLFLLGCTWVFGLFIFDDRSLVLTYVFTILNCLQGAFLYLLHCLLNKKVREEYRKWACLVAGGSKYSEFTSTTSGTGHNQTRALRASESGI
# UniProt P50750, whole entry, looked up: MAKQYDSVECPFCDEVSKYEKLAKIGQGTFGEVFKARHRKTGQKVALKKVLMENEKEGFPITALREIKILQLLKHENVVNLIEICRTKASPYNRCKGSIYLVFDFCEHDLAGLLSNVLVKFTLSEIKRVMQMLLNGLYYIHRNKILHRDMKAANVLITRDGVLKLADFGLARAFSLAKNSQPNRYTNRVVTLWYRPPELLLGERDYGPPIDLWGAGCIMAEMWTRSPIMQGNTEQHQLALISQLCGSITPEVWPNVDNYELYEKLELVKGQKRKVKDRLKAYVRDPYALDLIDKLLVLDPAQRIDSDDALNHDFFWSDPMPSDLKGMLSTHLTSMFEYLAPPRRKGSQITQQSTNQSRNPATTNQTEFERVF
# Some of the results follow.
# Compound: O=C(O)c1ccc2c(c1)nc(Nc1cccc(Cl)c1)c1ccncc12 [silmitasertib]
# Experiment: log2 fold change, soluble protein after heating vs DMSO (PISA); higher = thermal stabilisation; K562 lysate, 10 uM; active = over 0.2 and 3.5 SD of the protein, either way, in both replicates (recomputed)
# Outline: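 Following dounce homogenisation of K562 pellets in PBS pH 7.4 with 1 mM MgCl2, crude extract at 1 mg/mL protein was incubated for 30 min with 10 μM compound. Aliquots were then heated for 3 min over 48°C-58°C and pooled, NP-40 was added to 0.5% at 4°C, and soluble protein was recovered as the supernatant at 21,000xg for 90 min. Channel-sum-equalised TMTpro 16plex LC-MS/MS quantified this protein. Each value, from duplicates, is a log-two fold change in thermal stability relative to solvent controls.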
row,Target,log2 fold change
1,CDC25B (UniProt P30305),inactive: -0.029
2,CDCA2 (UniProt Q69YH5),inactive: -0.055
3,CEBPZOS (UniProt A8MTT3),inactive: -0.004
4,CDCA5 (UniProt Q96FF9),inactive: 0.011
5,CDKN1C (UniProt P49918),inactive: -0.029
6,CFAP47 (UniProt Q6ZTR5),inactive: -0.213
7,CDKN2AIP (UniProt Q9NXV6),inactive: -0.037
8,CDC123 (UniProt O75794),inactive: 0.015
9,CDC73 (UniProt Q6P1J9),inactive: -0.007
10,CDK2 (UniProt P24941),inactive: 0.248
11,CDK5RAP3 isoform 4 (UniProt Q96JB5),inactive: 0.068
12,CDC37L1 (UniProt Q7L3B6),inactive: 0.017
13,CFAP410 (UniProt O43822),inactive: -0.081
14,CEBPZ (UniProt Q03701),inactive: 0.044
15,CFL1 (UniProt P23528),inactive: -0.01
16,CDK5 (UniProt Q00535),active: 0.855

# Retrieved one by one from the entries so far:
row,Target,log2 fold change
6,CFAP47 (UniProt Q6ZTR5),inactive: -0.213
8,CDC123 (UniProt O75794),inactive: 0.015

# (next part)

row,Target,log2 fold change
1,CDCA3 (UniProt Q99618),inactive: 0
2,CENPQ (UniProt Q7L2Z9),inactive: -0.014
3,CELF1 isoform 4 (UniProt Q92879),inactive: 0.019
4,CDR2L (UniProt Q86X02),inactive: 0.038
5,CENPK (UniProt Q9BS16),inactive: -0.022
6,CENPE (UniProt Q02224),inactive: 0.011
7,CDS2 (UniProt O95674),inactive: 0.024
8,CENPF (UniProt P49454),inactive: -0.022
9,CEBPB (UniProt P17676),inactive: -0.022
10,CDC42SE2 (UniProt Q9NRR3),inactive: -0.05
11,CEP170 (UniProt Q5SW79),inactive: -0.088
12,CDC26 (UniProt Q8NHZ8),inactive: -0.012
13,CD97 (UniProt P48960),inactive: -0.074
14,CETN2 (UniProt P41208),inactive: -0.037
15,CDK9 isoform 2 (UniProt P50750),inactive: 0.164
16,CDC16 (UniProt Q13042),inactive: 0.023
